Measurements reported in article PMC3623771.
Results are given in words; binding and its absence hold for the method and conditions named. Binding seen in cells or lysates may run through a third protein. Some results given as binding are weak or reduced against the parent protein; the word gives no strength.

Chains of the proteins cited; added tags and fusions are not shown.
UniProt Q03135: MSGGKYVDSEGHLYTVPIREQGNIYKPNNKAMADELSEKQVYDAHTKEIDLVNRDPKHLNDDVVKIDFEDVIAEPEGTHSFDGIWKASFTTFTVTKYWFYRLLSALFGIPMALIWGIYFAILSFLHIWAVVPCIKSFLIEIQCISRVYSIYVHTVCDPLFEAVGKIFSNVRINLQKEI

Target: Caveolin-1 (Cav1) (UniProt Q03135)
Experiment: co-IP; AGS/Cav1 cells infected with H. pylori G27 (MOI = 100) for 16 h; total cell lysates subjected to CoIP using antibodies against Cav1 and DLC1, detection by WB

B1: p120 Rho GTPase-activating protein/deleted in liver cancer-1 (p120RhoGAP/DLC1), variant 4 (protein, UniProt Q96QB1-4 1-1017)
chain: MKLEISPHRKRSDDSDEDEPCAISGKWTFQRDSKRWSRLEEFDVFSPKQDLVPGSPDDSHPKDGPSPGGTLMDLSERQEVSSVRSLSSTGSLPSHAPPSEDAATPRTNSVISVCSSSNLAGNDDSFGSLPSPKELSSFSFSMKGHEKTAKSKTRSLLKRMESLKLKSSHHSKHKAPSKLGLIISGPILQEGMDEEKLKQLNCVEISALNGNRINVPMVRKRSVSNSTQTSSSSSQSETSSAVSTPSPVTRTRSLSACNKRVGMYLEGFDPFNQSTFNNVVEQNFKNRESYPEDTVFYIPEDHKPGTFPKALTNGSFSPSGNNGSVNWRTGSFHGPGHISLRRENSSDSPKELKRRNSSSSMSSRLSIYDNVPGSILYSSSGDLADLENEDIFPELDDILYHVKGMQRIVNQWSEKFSDEGDSDSALDSVSPCPSSPKQIHLDVDNDRTTPSDLDSTGNSLNEPEEPSEIPERRDSGVGASLTRSNRHRLRWHSFQSSHRPSLNSVSLQINCQSVAQMNLLQKYSLLKLTALLEKYTPSNKHGFSWAVPKFMKRIKVPDYKDRSVFGVPLTVNVQRTGQPLPQSIQQAMRYLRNHCLDQVGLFRKSGVKSRIQALRQMNEGAIDCVNYEGQSAYDVADMLKQYFRDLPEPLMTNKLSETFLQIYQYVPKDQRLQAIKAAIMLLPDENREVLQTLLYFLSDVTAAVKENQMTPTNLAVCLAPSLFHLNTLKRENSSPRVMQRKQSLGKPDQKDLNENLAATQGLAHMIAECKKLFQVPEEMSRCRNSYTEQELKPLTLEALGHLGNDDSADYQHFLQDCVDGLFKEVKEKFKGWVSYSTSEQAELSYKKVSEGPPLRLWRSVIEVPAVPEEILKRLLKEQHLWDVDLLDSKVIEILDSQTEIYQYVQNSMAPHPARDYVVLRTWRTNLPKGACALLLTSVDHDRAPVVGVRVNVLLSRYLIEPCGPGKSKLTYMCRVDLRGHMPEWYTKSFGHLCAAEVVKIRDSFSNQNTETKDTKSR
In the case of B1, the binding is reported as “binds”.
